pIC50: −log10 of the molar value. Not every detail of the peptide structures is certain; ends, links or a residue may be inferred. Ends that are not written are not given here.
Biological target: T1, VLA-4 (Homo sapiens, UniProt P05556+P13612)
T1 construct: endogenous in cells; host or cells: Jurkat cells
Test: Jurkat interaction with soluble VCAM-1 (sVCAM-1-IgG), FACS assay of Example 6
Type: cell-based
Conditions: for inhibitory activity compared with parent or linear peptide: relative to SEQ ID No. 4 (Nos. 27, 17) or SEQ ID No. 34 (No. 35)
Description: VCAM-1 was expressed as a soluble fusion protein. The construct expressed the seven extracellular domains of VCAM-1 on the N-terminus, and the human IgG1 heavy chain constant region on the C-terminus. Interaction of the soluble construct with Jurkat cells was monitored by standard FACS analysis, using a fluorescently labeled antibody directed against the construct's human IgG tail as a marker.
The activity of VLA-4 can be regulated. 15/7 is a monoclonal antibody that recognizes an activated conformation of VLA-4 and locks the molecule in the active state, thereby enhancing VLA-4-mediated cell adhesion.
Peptides of different length, and with various amino acid substitutions were synthesized based on the sequence of the CDR3 region of the antibody 21/6 (EGYYGNYGVYA) (SEQ ID No. 4). The peptides were then tested for their ability to inhibit Jurkat interaction with sVCAM-1-IgG in the FACS assay described in Example 6. IC50 values were determined for each peptide using this assay.

Sequences of proteins named here, by UniProt entry; tags and fusion partners are left off. Residues count along the entry.
UniProt P13612, 34-1032: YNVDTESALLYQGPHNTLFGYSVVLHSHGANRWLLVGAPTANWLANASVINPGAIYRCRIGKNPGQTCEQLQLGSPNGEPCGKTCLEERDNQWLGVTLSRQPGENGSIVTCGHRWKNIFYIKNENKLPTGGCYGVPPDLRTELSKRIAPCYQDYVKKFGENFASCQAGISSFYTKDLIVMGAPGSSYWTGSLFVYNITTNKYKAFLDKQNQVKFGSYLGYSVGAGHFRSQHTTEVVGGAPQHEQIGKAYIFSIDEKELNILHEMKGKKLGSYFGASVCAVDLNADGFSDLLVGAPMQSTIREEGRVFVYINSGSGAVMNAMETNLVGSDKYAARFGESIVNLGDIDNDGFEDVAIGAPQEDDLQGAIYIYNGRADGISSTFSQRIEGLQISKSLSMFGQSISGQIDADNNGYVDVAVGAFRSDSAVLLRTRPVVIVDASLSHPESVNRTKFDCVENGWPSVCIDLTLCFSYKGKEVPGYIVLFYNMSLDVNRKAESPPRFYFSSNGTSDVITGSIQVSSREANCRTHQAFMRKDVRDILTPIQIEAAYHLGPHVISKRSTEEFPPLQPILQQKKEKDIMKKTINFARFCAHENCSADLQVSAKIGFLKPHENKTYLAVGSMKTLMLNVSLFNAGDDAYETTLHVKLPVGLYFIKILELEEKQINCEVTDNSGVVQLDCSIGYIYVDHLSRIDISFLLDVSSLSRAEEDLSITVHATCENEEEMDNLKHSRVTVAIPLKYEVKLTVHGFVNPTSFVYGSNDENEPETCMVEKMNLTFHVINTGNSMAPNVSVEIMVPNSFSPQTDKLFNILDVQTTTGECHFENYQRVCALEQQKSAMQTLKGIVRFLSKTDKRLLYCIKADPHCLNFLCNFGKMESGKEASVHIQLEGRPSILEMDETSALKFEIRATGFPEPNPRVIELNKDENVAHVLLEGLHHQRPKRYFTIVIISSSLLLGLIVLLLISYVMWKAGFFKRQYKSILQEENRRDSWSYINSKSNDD

Sequence	inhibitory activity compared with parent or linear peptide (result in words)	pIC50 (per Example 6: inhibition of Jurkat interaction with sVCAM-1-IgG, FACS, in the presence of Mn+2 and 15/7)	inhibition of interaction of sVCAM-1-IgG with Jurkat cells (result in words, Mn+2 and 15/7 present)
EGYYGNYGVY [SEQ ID No. 17]	greatly increased inhibitory activity	–	–
YYGNYGVYA [SEQ ID No. 27]	no significant effect on activity	–	–
EGYYGNYGVYA [SEQ ID No. 4, EGYYGNYGVYA]	–	≥ 4.30	inhibited interaction of sVCAM-1-IgG with Jurkat cells in a dose-dependent fashion
